{
  "source": "patent US20190290614A1",
  "about": "“Methods for Reducing Recurrence of Tumors” (Beth Israel Deaconess Medical Center, Inc., priority 2016, published 2019)",
  "test_system": "Lewis Lung carcinoma (LLC)",
  "assay": "spontaneous LLC lung metastasis model after primary tumor resection (survival)",
  "type": "in vivo, mice",
  "conditions": "FR122047 20, TFAP 30, SC-560 30, indomethacin 3 mg/kg i.p.; celecoxib 60 mg/kg oral gavage; FIG. 1B",
  "text": "Doses were selected based on previous publications by the present inventors and others, and/or by analogy to the human dose.",
  "data": [
    {"smiles": "COc1ccc(-n2nc(C(F)(F)F)cc2-c2ccc(Cl)cc2)cc1", "note": "[SC-560, 5-(4-Chlorophenyl)-1-(4-methoxyphenyl)-3-trifluoromethyl pyrazole]", "values": [
      {"measurement": "mimicked the action of ketorolac in prolonging survival after primary LLC tumor resection", "value": "mimicked the action of ketorolac"}
    ]}
  ]
}
